Results from US20250368626A1, “SOLID FORMS OF 2-(3,5-DICHLORO-4-((5-ISOPROPYL-6-OXO-1,6-DIHYDROPYRIDAZIN-3-YL)OXY)PHENYL)-3,5-DIOXO-2,3,4,5-TETRAHYDRO-1,2,4-TRIAZINE-6-CARBONITRILE” (Madrigal Pharmaceuticals, Inc., priority 2018, published 2025).
Some of these results come from one statement about several compounds together. At least one structure is not confirmed: it was looked up by name or label, or the drawing left a doubt.

Assay: Solubility of salts of Compound A in FaSSGF, FaSSIF and water at 37° C.
Settings: Water

Row | SMILES | Solubility, mg/mL (listed as sodium) | Solubility, mg/mL (listed as potassium)
1 | CC(C)c1cc(Oc2c(Cl)cc(-n3nc(C#N)c(=O)[n-]c3=O)cc2Cl)n[nH]c1=O.[Na+] [Na] | higher than 20 mg/mL | 
2 | CC(C)c1cc(Oc2c(Cl)cc(-n3nc(C#N)c(=O)[n-]c3=O)cc2Cl)n[nH]c1=O.[K+] [K] |  | higher than 20 mg/mL
